PubChem BioAssay AID1259285 | Sanger Institute | 2017
The deposit covers 794 reagents; below is a random part of them. 20 of them (2.5%) were called active. 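Calls rest on the drug-free arm alone and ignore synergy scores; viability ratios seem to be capped at 1.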 Not given: the amount of reagent, the time to read-out.

Test: 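Kinase knock-downs that reduce colorectal cancer cell viability or act with drugs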 (primary screen)
Cells: human HCC56 colorectal cancer cells
Knock-down reagent: siRNA pool against human genes
Treatment: DMSO vehicle, or anchor drug BYL719 at 1 µM, cetuximab at 5 µg/ml, or trametinib at 10 nM
Detection: 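Viability as a ratio to non-targeting pool wells, averaged over replicates and turned into a robust z-score; synergy scores with BYL719, cetuximab or trametinib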
Reading the numbers: viability robust z-score, no drug: higher = more viable cells, weaker knock-down effect; viability vs non-targeting pool, no drug: higher = more viable cells; synergy score with BYL719: higher = stronger combined killing with BYL719; synergy score with cetuximab: higher = stronger combined killing with cetuximab; synergy score with trametinib: higher = stronger combined killing with trametinib
Active means: 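a knock-down counts as essential if its viability z-score without drug is under -3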
Meaning of the calls: active = essential without drug; inactive = no change without drug

target gene	viability robust z-score, no drug	viability vs non-targeting pool, no drug	synergy score with BYL719	synergy score with cetuximab	synergy score with trametinib	Outcome
MST1R	0.458	1	-0.0669	-0.0581	0.0112	inactive
STK32C	0.458	1	-0.107	-0.142	-0.0849	inactive
MOK	0.458	1	-0.122	-0.142	-0.0202	inactive
PIK3R1	0.458	1	-0.162	-0.142	-0.169	inactive
AURKB	0.458	1	0.0288	0.0831	0.0658	inactive
APC	0.175	0.976	-0.0997	0.0156	-0.0516	inactive
FBXW7	0.458	1	-0.162	-0.142	-0.187	inactive
HK1	0.458	1	-0.0241	-0.142	-0.0273	inactive
SOX9	0.458	1	-0.0957	-0.134	0.0122	inactive
MAST3	0.458	1	0.0822	-0.00882	0.116	inactive
DLG1	0.458	1	-0.0222	-0.075	0.0749	inactive
PRKCD	0.458	1	-0.0335	-0.142	-0.0102	inactive
RPS6KL1	0.458	1	-0.0468	-0.142	-0.0416	inactive
SRPK1	-0.391	0.927	-0.0668	-0.0615	0.107	inactive
EIF2AK1	0.458	1	-0.0452	0.0483	0.125	inactive
NR2F2	-2.03	0.786	-0.072	-0.0254	-0.0538	inactive
FRK	0.458	1	-0.136	-0.142	-0.0204	inactive
ITSN1	-2.09	0.781	-0.16	-0.119	-0.0895	inactive
NEK6	0.458	1	-0.0512	-0.0354	-0.0451	inactive
MAP3K15	0.458	1	-0.00139	-0.142	0.0255	inactive
MAPK4	0.458	1	0.12	0.16	0.171	inactive
ADGRL2	0.458	1	-0.131	-0.0111	-0.0433	inactive
CHUK	0.458	1	-0.162	-0.142	-0.148	inactive
MINK1	-0.192	0.944	0.0157	0.0264	0.0605	inactive
WT1	0.458	1	-0.162	-0.0504	-0.018	inactive
CDK17	0.458	1	-0.162	-0.142	-0.119	inactive
TNNI3K	0.458	1	-0.152	-0.142	-0.0306	inactive
EPHA2	0.458	1	-0.112	-0.142	-0.176	inactive
INSR	0.458	1	-0.162	-0.137	-0.158	inactive
PRPS1L1	0.458	1	-0.101	-0.142	-0.0439	inactive
ITK	0.458	1	-0.162	-0.142	-0.27	inactive
STKLD1	-1.87	0.8	0.0536	0.0792	0.0186	inactive
PFKFB4	0.458	1	-0.0951	-0.14	-0.0618	inactive
ARID1A	0.458	1	0.0836	-0.0475	-0.0204	inactive
PXK	0.458	1	-0.0021	0.0892	0.082	inactive
PRAG1	0.458	1	0.152	0.181	0.126	inactive
DYRK4	0.458	1	0.0947	-0.0309	0.122	inactive
MAP2K3	-0.247	0.939	-0.213	0.00365	-0.0223	inactive
BTK	0.458	1	0.0248	-0.142	0.072	inactive
FGFR1	0.458	1	-0.162	-0.142	-0.128	inactive
SMC1A	-1.9	0.797	0.0284	-0.00979	-0.0329	inactive
NTRK1	-0.189	0.944	0.0583	0.0131	0.0982	inactive
PGK1	0.458	1	-0.162	-0.142	-0.045	inactive
DSTYK	0.458	1	-0.162	-0.141	0.0461	inactive
PRKD1	0.458	1	-0.0934	-0.0527	-0.0632	inactive
FLT4	0.458	1	-0.000552	-0.0556	0.0174	inactive
HK2	0.458	1	-0.0491	0.0208	0.0631	inactive
TP53BP1	0.458	1	-0.162	-0.142	-0.255	inactive
MPP3	0.309	0.987	-0.0813	0.00569	0.0926	inactive
MAPK3	-2.23	0.769	0.0307	0.0766	0.0599	inactive
